Assay results: the supplement of paper PMC12823440, “Inhibitors supercharge kinase turnover through native proteolytic circuits” (Nature, 2025)
Counter-ions that a name gives are not always drawn. The list shows a part of the results. Hit calls seldom repeat between salt and free forms of one compound.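 Kinases were expressed as nanoluciferase fusions in K562 cells and luminescence was read every 4 h between 2 and 18 h as percent of control, DMSO set to 100% and a positive control to 0%. A time point counts as decreased when the signal drops significantly (2 sigma). The hit call is the authors' own, does not follow from the count of time points alone, and its rule is not shown.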

Sequences of proteins named here, by UniProt entry; tags and fusion partners are left off. A change or cut given only in a name is not applied to a line headed by its entry.
UniProt P28482, whole entry: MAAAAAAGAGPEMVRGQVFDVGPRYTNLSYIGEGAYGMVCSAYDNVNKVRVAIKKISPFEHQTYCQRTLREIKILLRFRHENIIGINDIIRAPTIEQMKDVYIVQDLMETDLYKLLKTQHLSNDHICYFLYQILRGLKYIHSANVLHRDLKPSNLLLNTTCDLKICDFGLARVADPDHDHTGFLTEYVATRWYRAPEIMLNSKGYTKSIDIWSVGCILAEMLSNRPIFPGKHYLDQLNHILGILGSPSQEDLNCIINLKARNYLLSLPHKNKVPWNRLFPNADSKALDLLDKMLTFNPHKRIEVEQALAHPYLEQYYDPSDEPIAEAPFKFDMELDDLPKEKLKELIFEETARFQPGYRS
UniProt P31152, whole entry: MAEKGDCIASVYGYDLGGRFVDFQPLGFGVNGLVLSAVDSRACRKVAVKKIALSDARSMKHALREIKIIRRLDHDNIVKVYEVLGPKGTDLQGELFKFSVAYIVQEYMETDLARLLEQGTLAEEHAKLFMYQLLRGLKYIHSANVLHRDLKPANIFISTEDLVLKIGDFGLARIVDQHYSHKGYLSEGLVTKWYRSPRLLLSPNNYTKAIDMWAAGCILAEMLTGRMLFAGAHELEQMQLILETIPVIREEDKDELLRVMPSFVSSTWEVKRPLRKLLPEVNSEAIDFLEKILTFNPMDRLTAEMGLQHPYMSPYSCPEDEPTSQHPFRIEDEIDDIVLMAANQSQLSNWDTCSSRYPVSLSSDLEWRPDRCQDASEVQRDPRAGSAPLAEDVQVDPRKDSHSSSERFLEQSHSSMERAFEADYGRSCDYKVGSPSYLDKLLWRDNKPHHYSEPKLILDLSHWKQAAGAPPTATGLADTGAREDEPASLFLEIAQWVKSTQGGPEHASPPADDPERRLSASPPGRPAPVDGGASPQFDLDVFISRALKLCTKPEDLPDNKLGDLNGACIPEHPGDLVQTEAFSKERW
UniProt P49137, whole entry, looked up: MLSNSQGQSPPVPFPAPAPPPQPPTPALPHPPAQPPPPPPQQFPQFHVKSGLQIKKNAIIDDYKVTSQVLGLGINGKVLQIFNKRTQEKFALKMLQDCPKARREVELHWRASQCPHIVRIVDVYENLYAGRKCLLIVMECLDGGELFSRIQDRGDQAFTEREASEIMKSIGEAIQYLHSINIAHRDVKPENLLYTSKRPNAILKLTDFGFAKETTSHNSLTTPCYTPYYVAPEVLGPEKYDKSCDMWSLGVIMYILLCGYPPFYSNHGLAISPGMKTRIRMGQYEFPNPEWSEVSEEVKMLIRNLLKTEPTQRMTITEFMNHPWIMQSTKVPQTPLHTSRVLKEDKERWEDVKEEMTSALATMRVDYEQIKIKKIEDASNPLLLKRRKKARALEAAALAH
UniProt Q9BUB5: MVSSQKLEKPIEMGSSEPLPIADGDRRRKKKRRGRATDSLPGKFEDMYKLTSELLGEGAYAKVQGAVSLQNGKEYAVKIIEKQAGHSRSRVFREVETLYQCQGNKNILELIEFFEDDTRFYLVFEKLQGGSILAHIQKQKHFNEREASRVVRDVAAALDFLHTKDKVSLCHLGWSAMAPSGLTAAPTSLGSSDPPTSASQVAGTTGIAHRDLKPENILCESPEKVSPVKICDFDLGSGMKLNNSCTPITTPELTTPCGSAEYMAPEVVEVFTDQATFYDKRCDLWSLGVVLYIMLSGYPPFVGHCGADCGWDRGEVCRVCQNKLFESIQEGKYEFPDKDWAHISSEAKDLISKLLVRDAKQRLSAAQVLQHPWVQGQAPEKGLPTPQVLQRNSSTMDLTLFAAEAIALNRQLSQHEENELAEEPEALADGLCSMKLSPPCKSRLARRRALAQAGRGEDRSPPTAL
UniProt Q16620, whole entry, looked up: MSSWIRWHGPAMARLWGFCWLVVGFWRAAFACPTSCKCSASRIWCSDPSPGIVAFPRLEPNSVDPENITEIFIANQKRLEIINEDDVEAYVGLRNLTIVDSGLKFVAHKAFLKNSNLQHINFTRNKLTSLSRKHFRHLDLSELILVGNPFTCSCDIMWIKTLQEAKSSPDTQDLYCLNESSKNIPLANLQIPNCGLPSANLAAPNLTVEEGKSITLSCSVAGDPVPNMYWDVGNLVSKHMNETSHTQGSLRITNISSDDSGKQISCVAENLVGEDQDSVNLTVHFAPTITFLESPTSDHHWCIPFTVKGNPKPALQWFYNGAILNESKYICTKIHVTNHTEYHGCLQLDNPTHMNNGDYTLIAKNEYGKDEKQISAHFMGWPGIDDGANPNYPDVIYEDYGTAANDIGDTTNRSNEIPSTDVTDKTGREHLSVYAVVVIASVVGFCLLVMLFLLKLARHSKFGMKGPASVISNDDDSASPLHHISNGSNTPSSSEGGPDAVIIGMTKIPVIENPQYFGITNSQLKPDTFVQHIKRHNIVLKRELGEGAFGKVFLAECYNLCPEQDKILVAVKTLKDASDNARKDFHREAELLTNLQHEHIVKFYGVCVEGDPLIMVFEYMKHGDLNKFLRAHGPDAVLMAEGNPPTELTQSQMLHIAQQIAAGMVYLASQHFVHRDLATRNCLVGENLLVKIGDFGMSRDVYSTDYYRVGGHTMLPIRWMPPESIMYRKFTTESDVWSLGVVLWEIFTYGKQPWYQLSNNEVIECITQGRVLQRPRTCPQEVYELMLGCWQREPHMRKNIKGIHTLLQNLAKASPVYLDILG
UniProt Q16288, whole entry, looked up: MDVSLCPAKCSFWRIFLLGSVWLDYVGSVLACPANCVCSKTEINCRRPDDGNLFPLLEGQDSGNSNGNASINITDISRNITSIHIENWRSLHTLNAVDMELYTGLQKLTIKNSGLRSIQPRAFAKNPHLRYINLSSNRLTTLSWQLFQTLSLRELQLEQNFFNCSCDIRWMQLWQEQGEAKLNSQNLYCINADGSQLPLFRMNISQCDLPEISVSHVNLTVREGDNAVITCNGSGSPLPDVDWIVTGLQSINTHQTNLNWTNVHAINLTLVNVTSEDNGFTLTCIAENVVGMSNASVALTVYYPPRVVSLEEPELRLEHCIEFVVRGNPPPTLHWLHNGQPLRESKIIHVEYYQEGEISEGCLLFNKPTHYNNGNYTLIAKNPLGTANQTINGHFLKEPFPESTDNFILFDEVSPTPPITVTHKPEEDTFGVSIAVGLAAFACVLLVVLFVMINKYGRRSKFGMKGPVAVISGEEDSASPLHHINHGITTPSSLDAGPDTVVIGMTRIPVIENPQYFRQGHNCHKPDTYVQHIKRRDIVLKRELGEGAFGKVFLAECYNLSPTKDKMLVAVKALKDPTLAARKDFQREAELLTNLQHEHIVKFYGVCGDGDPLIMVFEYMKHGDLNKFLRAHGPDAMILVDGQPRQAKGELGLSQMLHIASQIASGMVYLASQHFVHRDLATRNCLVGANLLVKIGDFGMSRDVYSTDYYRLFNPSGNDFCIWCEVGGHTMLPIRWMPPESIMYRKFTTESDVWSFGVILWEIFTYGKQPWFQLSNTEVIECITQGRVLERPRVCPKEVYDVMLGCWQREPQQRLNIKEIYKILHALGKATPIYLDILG
UniProt O96013: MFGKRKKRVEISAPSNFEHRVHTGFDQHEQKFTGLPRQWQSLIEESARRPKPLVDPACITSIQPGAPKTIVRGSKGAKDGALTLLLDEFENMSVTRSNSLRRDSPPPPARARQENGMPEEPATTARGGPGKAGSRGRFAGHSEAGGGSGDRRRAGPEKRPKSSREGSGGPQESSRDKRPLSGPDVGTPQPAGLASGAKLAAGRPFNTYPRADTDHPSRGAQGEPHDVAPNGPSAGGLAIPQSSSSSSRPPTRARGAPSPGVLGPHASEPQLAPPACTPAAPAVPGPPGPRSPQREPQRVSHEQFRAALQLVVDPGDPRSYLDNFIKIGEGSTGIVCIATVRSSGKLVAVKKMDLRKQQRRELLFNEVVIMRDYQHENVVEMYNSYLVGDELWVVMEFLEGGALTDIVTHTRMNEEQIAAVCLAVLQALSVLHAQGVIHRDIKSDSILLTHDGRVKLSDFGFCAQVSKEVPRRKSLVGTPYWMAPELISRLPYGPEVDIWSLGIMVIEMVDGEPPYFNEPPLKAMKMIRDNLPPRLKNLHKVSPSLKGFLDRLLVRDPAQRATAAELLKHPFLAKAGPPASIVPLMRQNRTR
UniProt Q96KB5: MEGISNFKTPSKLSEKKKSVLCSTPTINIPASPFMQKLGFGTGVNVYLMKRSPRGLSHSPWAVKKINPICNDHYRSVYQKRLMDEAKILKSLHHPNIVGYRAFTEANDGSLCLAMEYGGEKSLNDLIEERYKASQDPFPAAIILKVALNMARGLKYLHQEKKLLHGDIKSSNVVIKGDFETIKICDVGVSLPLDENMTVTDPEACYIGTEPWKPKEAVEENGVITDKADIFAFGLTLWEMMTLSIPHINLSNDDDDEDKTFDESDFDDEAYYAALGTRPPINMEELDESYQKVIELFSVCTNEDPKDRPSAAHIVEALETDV
UniProt P09619, whole entry: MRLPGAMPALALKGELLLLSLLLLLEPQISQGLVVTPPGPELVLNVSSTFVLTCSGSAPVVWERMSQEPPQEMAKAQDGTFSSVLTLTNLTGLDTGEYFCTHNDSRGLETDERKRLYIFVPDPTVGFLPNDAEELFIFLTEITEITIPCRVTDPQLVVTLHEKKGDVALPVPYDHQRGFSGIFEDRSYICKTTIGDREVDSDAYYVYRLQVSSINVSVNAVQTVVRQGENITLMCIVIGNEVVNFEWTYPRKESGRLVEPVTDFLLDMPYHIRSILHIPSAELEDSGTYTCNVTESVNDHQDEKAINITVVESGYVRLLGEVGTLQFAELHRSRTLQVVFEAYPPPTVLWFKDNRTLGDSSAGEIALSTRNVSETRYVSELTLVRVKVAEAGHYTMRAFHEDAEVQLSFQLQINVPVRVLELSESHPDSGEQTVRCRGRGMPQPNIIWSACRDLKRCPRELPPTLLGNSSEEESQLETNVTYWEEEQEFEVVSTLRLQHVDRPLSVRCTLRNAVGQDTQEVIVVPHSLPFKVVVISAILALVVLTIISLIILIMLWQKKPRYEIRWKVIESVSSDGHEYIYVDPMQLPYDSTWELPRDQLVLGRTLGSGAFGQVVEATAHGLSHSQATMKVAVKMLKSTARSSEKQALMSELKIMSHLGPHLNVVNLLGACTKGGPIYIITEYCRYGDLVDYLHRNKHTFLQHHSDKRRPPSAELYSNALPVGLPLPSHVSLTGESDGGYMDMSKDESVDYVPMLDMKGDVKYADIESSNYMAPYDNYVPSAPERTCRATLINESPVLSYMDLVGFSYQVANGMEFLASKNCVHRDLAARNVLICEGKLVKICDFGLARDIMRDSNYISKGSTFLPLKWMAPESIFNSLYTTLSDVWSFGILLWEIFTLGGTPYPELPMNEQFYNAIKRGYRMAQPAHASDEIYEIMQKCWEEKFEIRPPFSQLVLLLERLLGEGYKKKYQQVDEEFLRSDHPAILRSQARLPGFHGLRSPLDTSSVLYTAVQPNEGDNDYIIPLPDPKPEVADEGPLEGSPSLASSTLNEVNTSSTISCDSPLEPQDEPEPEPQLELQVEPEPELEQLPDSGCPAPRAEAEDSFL
UniProt Q15118, whole entry, looked up: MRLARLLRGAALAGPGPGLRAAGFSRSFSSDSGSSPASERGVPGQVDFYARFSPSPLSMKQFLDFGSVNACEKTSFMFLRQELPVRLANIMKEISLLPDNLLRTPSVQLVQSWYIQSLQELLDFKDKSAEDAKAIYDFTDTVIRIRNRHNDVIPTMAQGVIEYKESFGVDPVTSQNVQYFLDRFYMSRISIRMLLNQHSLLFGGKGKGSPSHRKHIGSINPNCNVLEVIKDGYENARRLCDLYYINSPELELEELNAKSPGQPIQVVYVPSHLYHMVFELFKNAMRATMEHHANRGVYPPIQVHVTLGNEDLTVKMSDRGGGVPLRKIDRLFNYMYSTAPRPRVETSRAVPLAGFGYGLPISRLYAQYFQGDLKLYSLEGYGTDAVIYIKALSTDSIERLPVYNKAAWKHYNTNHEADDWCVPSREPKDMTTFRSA

Experiments:
Experiment in all cases: kinase-Nluc reporter destabilization hit call (1 = scored as downregulated) (binary); higher = compound decreases kinase abundance
Details in all cases: K562, 2-18 h
MAPK1 = MAPK1 (UniProt P28482)
MAPK4 = MAPK4 (UniProt P31152)
MAPKAPK2 = MAPKAPK2 (UniProt P49137)
MKNK1 = MKNK1 (UniProt Q9BUB5)
NTRK2 = NTRK2 (UniProt Q16620)
NTRK3 = NTRK3 (UniProt Q16288)
PAK4 = PAK4 (UniProt O96013)
PBK = PBK (UniProt Q96KB5)
PDGFRB = PDGFRB (UniProt P09619)
PDK1 = PDK1 (UniProt Q15118)

Measured: kinase-Nluc reporter destabilization hit call

c1cc(-c2cnn3cc(-c4ccc(OCCN5CCCCC5)cc4)cnc23)ccn1 [Dorsomorphin (dihydrochloride)]
inactive: MAPK1; 2.5 µM 0 | MAPK4; 2.5 µM 0 | MAPKAPK2; 2.5 µM 0 | MKNK1; 2.5 µM 0 | NTRK2; 2.5 µM 0 | NTRK3; 2.5 µM 0 | PAK4; 2.5 µM 0 | PBK; 2.5 µM 0 | PDGFRB; 2.5 µM 0 | PDK1; 2.5 µM 0

CC(=O)N[C@H](Cc1ccc(O)cc1)C(=O)N[C@H](CCCN=C(N)N)C(=O)N[C@H](Cc1ccccc1)C(N)=O
inactive: MAPK1; 10 µM 0 | MAPK4; 10 µM 0 | MAPKAPK2; 10 µM 0 | MKNK1; 10 µM 0 | NTRK2; 10 µM 0 | NTRK3; 10 µM 0 | PAK4; 10 µM 0 | PBK; 10 µM 0 | PDGFRB; 10 µM 0 | PDK1; 10 µM 0

CC(C)NC[C@@H](C(=O)N1CCN(c2ncnc3c2[C@H](C)C[C@H]3O)CC1)c1ccc(Cl)cc1 [Ipatasertib (dihydrochloride)]
inactive: MAPK1; 10 µM 0 | MAPK4; 10 µM 0 | MAPKAPK2; 10 µM 0 | MKNK1; 10 µM 0 | NTRK3; 10 µM 0 | PAK4; 10 µM 0 | PBK; 10 µM 0 | PDGFRB; 10 µM 0 | PDK1; 10 µM 0

C#Cc1cccc(Nc2ncnc3cc4c(cc23)OCCOCCOCCO4)c1 [Icotinib (Hydrochloride)]
inactive: MAPK1; 10 µM 0 | MAPK4; 10 µM 0 | MAPKAPK2; 10 µM 0 | MKNK1; 10 µM 0 | NTRK3; 10 µM 0 | PAK4; 10 µM 0 | PBK; 10 µM 0 | PDGFRB; 10 µM 0 | PDK1; 10 µM 0

O=C(Nc1ccncc1)Nc1ccc(-c2nc(N3CCOCC3)nc(N3C4CCC3COC4)n2)cc1
inactive: MAPK1; 10 µM 0 | MAPK4; 10 µM 0 | MAPKAPK2; 10 µM 0 | MKNK1; 10 µM 0 | NTRK2; 10 µM 0 | NTRK3; 10 µM 0 | PAK4; 10 µM 0 | PBK; 10 µM 0 | PDGFRB; 10 µM 0 | PDK1; 10 µM 0

N#CC[C@H](C1CCCC1)n1cc(-c2ncnc3[nH]ccc23)cn1 [Ruxolitinib (phosphate)]
inactive: MAPK1; 10 µM 0 | MAPK4; 10 µM 0 | MAPKAPK2; 10 µM 0 | MKNK1; 10 µM 0 | NTRK2; 10 µM 0 | PAK4; 10 µM 0 | PBK; 10 µM 0 | PDGFRB; 10 µM 0 | PDK1; 10 µM 0

COc1cc2c(Oc3ccc4[nH]c(C)cc4c3F)ncnc2cc1OCCCN1CCCC1 [Cediranib (maleate)]
inactive: MAPK1; 2.5 µM 0 | MAPK4; 2.5 µM 0 | MAPKAPK2; 2.5 µM 0 | MKNK1; 2.5 µM 0 | NTRK2; 2.5 µM 0 | NTRK3; 2.5 µM 0 | PAK4; 2.5 µM 0 | PBK; 2.5 µM 0 | PDGFRB; 2.5 µM 0 | PDK1; 2.5 µM 0

Cn1cc(-c2cnc3ccc4ccc(CS(=O)(=O)NCc5ccccn5)cc4c(=O)c3c2)cn1 [MK-8033 (hydrochloride)]
inactive: MAPK1; 10 µM 0 | MAPK4; 10 µM 0 | MAPKAPK2; 10 µM 0 | MKNK1; 10 µM 0 | NTRK2; 10 µM 0 | NTRK3; 10 µM 0 | PAK4; 10 µM 0 | PBK; 10 µM 0 | PDGFRB; 10 µM 0 | PDK1; 10 µM 0

O=C(c1ccc(F)c(F)c1Nc1ccc(I)cc1F)N1CC(O)([C@@H]2CCCCN2)C1 [Cobimetinib (hemifumarate)]
inactive: MAPK1; 10 µM 0 | MAPK4; 10 µM 0 | MAPKAPK2; 10 µM 0 | MKNK1; 10 µM 0 | NTRK3; 10 µM 0 | PAK4; 10 µM 0 | PBK; 10 µM 0 | PDGFRB; 10 µM 0 | PDK1; 10 µM 0

CCCCCCCCc1ccc(CCC(N)(CO)CO)cc1 [Fingolimod]
inactive: MAPK1; 2.5 µM 0 | MAPK4; 2.5 µM 0 | MAPKAPK2; 2.5 µM 0 | MKNK1; 2.5 µM 0 | NTRK2; 2.5 µM 0 | NTRK3; 2.5 µM 0 | PAK4; 2.5 µM 0 | PBK; 2.5 µM 0 | PDGFRB; 2.5 µM 0 | PDK1; 2.5 µM 0

COc1ccc2c(c1)C(c1ccc(F)cc1)=C(CN1CCCC1)CO2
inactive: MAPK1; 10 µM 0 | MAPK4; 10 µM 0 | MAPKAPK2; 10 µM 0 | MKNK1; 10 µM 0 | NTRK2; 10 µM 0 | NTRK3; 10 µM 0 | PAK4; 10 µM 0 | PBK; 10 µM 0 | PDGFRB; 10 µM 0 | PDK1; 10 µM 0
